# Measured values as given in the supplement of paper PMC8728848.
# The list shows a part of the results.
# B1: SHCBP1-GST (Homo sapiens), Q8NEM2 (protein)
# chain: MADGSLTGGGLEAAAMAPERMGWAVEQELASLEKGLFQDEDSCSDCSYRDKPGSSLQSFMPEGKTFFPEIFQTNQLLFYERFRAYQDYILADCKASEVQEFTAEFLEKVLEPSGWRAVWHTNVFKVLVEITDVDFAALKAVVRLAEPYLCDSQVSTFTMECMKELLDLKEHRLPLQELWVVFDDSGVFDQTALAIEHVRFFYQNIWRSWDEEEEDEYDYFVRCVEPRLRLHYDILEDRVPSGLIVDYHNLLSQCEESYRKFLNLRSSLSNCNSDSEQENISMVEGLKLYSEMEQLKQKLKLIENPLLRYVFGYQKNSNIQAKGVRSSGQKITHVVSSTMMAGLLRSLLTDRLCQEPGEEEREIQFHSDPLSAINACFEGDTVIVCPGHYVVHGTFSIADSIELEGYGLPDDIVIEKRGKGDTFVDCTGADIKISGIKFVQHDAVEGILIVHRGKTTLENCVLQCETTGVTVRTSAEFLMKNSDLYGAKGAGIEIYPGSQCTLSDNGIHHCKEGILIKDFLDEHYDIPKISMVNNIIHNNEGYGVVLVKPTIFSDLQENAEDGTEENKALKIQTSGEPDVAERVDLEELIECATGKMELCARTDPSEQVEGNCEIVNELIAASTQKGQIKKKRLSELGITQADDNLMSQEMFVGIVGNQFKWNGKGSFGTFLF
# Legend:
# Test in all cases: glycan array binding signal (z-score within array); higher = stronger binding
# Conditions in all cases: glycan notation: IUPAC condensed, linker removed
# [1] = molecular target: Gal(b1-4)GlcNAc(b1-3)Gal(b1-4)GlcNAc(b1-2)Man(a1-3)[Gal(b1-4)GlcNAc(b1-3)Gal(b1-4)GlcNAc(b1-2)Man(a1-6)]Man(b1-4)GlcNAc(b1-4)[Fuc(a1-6)]GlcNAc
# Method in brief: (§1)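 The binding signal is a Z-score computed within each array and averaged over linkers. Arrays of the same protein sequence at different concentrations or buffers were also averaged together. Data originate from 3228 arrays in the Consortium for Functional Glycomics database, kept only where the protein sequence was available.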
# [2] = molecular target: Gal(b1-4)GlcNAc(b1-3)Gal(b1-4)GlcNAc(b1-2)[Gal(b1-4)GlcNAc(b1-3)Gal(b1-4)GlcNAc(b1-6)]Man(a1-6)[Gal(b1-4)GlcNAc(b1-3)Gal(b1-4)GlcNAc(b1-2)Man(a1-3)]Man(b1-4)GlcNAc(b1-4)GlcNAc
# Method in brief: as §1
# [3] = molecular target: Gal(b1-4)GlcNAc(b1-3)Gal(b1-4)GlcNAc(b1-2)[Gal(b1-4)GlcNAc(b1-3)Gal(b1-4)GlcNAc(b1-6)]Man(a1-6)[Gal(b1-4)GlcNAc(b1-3)Gal(b1-4)GlcNAc(b1-2)Man(a1-3)]Man(b1-4)GlcNAc(b1-4)[Fuc(a1-6)]GlcNAc
# Method in brief: as §1
# [4] = molecular target: Gal(b1-4)GlcNAc(b1-3)Gal(b1-4)GlcNAc(b1-3)Gal(b1-4)GlcNAc
# Method in brief: as §1
# [5] = molecular target: Gal(b1-4)GlcNAc(b1-3)Gal(b1-4)GlcNAc(b1-3)Gal(b1-4)GlcNAc(b1-2)Man(a1-3)[Gal(b1-4)GlcNAc(b1-3)Gal(b1-4)GlcNAc(b1-3)Gal(b1-4)GlcNAc(b1-2)Man(a1-6)]Man(b1-4)GlcNAc(b1-4)GlcNAc
# Method in brief: as §1
# [6] = molecular target: Gal(b1-4)GlcNAc(b1-3)Gal(b1-4)GlcNAc(b1-3)Gal(b1-4)GlcNAc(b1-2)Man(a1-3)[Gal(b1-4)GlcNAc(b1-3)Gal(b1-4)GlcNAc(b1-3)Gal(b1-4)GlcNAc(b1-2)Man(a1-6)]Man(b1-4)GlcNAc(b1-4)[Fuc(a1-6)]GlcNAc
# Method in brief: as §1
# [7] = molecular target: Gal(b1-4)GlcNAc(b1-3)Gal(b1-4)GlcNAc(b1-3)Gal(b1-4)GlcNAc(b1-2)[Gal(b1-4)GlcNAc(b1-3)Gal(b1-4)GlcNAc(b1-3)Gal(b1-4)GlcNAc(b1-6)]Man(a1-6)[Gal(b1-4)GlcNAc(b1-3)Gal(b1-4)GlcNAc(b1-3)Gal(b1-4)GlcNAc(b1-2)Man(a1-3)]Man(b1-4)GlcNAc(b1-4)[Fuc(a1-6)]GlcNAc
# Method in brief: as §1
# [8] = molecular target: Gal(b1-4)GlcNAc(b1-3)Gal(b1-4)GlcNAc(b1-3)Gal(b1-4)GlcNAc(b1-3)Gal(b1-4)GlcNAc(b1-2)Man(a1-3)[Gal(b1-4)GlcNAc(b1-3)Gal(b1-4)GlcNAc(b1-3)Gal(b1-4)GlcNAc(b1-3)Gal(b1-4)GlcNAc(b1-2)Man(a1-6)]Man(b1-4)GlcNAc(b1-4)GlcNAc
# Method in brief: as §1
# [9] = molecular target: Gal(b1-4)GlcNAc(b1-3)Gal(b1-4)GlcNAc(b1-3)Gal(b1-4)GlcNAc(b1-3)Gal(b1-4)GlcNAc(b1-2)Man(a1-3)[Gal(b1-4)GlcNAc(b1-3)Gal(b1-4)GlcNAc(b1-3)Gal(b1-4)GlcNAc(b1-3)Gal(b1-4)GlcNAc(b1-2)Man(a1-6)]Man(b1-4)GlcNAc(b1-4)[Fuc(a1-6)]GlcNAc
# Method in brief: as §1
# [10] = molecular target: Gal(b1-4)GlcNAc(b1-3)Gal(b1-4)GlcNAc(b1-3)Gal(b1-4)GlcNAc(b1-3)Gal(b1-4)GlcNAc(b1-2)[Gal(b1-4)GlcNAc(b1-3)Gal(b1-4)GlcNAc(b1-3)Gal(b1-4)GlcNAc(b1-3)Gal(b1-4)GlcNAc(b1-6)]Man(a1-6)[Gal(b1-4)GlcNAc(b1-3)Gal(b1-4)GlcNAc(b1-3)Gal(b1-4)GlcNAc(b1-3)Gal(b1-4)GlcNAc(b1-2)Man(a1-3)]Man(b1-4)GlcNAc(b1-4)[Fuc(a1-6)]GlcNAc
# Method in brief: as §1
# [11] = molecular target: Gal(b1-4)GlcNAc(b1-3)Gal(b1-4)GlcNAc(b1-3)Gal(b1-4)GlcNAc(b1-3)Gal(b1-4)GlcNAc(b1-3)Gal(b1-4)GlcNAc(b1-2)Man(a1-3)[Gal(b1-4)GlcNAc(b1-3)Gal(b1-4)GlcNAc(b1-3)Gal(b1-4)GlcNAc(b1-3)Gal(b1-4)GlcNAc(b1-3)Gal(b1-4)GlcNAc(b1-2)Man(a1-6)]Man(b1-4)GlcNAc(b1-4)GlcNAc
# Method in brief: as §1
# [12] = molecular target: Gal(b1-4)GlcNAc(b1-3)Gal(b1-4)GlcNAc(b1-3)Gal(b1-4)GlcNAc(b1-3)Gal(b1-4)GlcNAc(b1-3)Gal(b1-4)GlcNAc(b1-2)Man(a1-3)[Gal(b1-4)GlcNAc(b1-3)Gal(b1-4)GlcNAc(b1-3)Gal(b1-4)GlcNAc(b1-3)Gal(b1-4)GlcNAc(b1-3)Gal(b1-4)GlcNAc(b1-2)Man(a1-6)]Man(b1-4)GlcNAc(b1-4)[Fuc(a1-6)]GlcNAc
# Method in brief: as §1
# [13] = molecular target: Gal(b1-4)GlcNAc(b1-3)Gal(b1-4)GlcNAc(b1-3)Gal(b1-4)GlcNAc(b1-3)Gal(b1-4)GlcNAc(b1-3)Gal(b1-4)GlcNAc(b1-2)[Gal(b1-4)GlcNAc(b1-3)Gal(b1-4)GlcNAc(b1-3)Gal(b1-4)GlcNAc(b1-3)Gal(b1-4)GlcNAc(b1-3)Gal(b1-4)GlcNAc(b1-6)]Man(a1-6)[Gal(b1-4)GlcNAc(b1-3)Gal(b1-4)GlcNAc(b1-3)Gal(b1-4)GlcNAc(b1-3)Gal(b1-4)GlcNAc(b1-3)Gal(b1-4)GlcNAc(b1-2)Man(a1-3)]Man(b1-4)GlcNAc(b1-4)[Fuc(a1-6)]GlcNAc
# Method in brief: as §1
# [14] = molecular target: Gal(b1-4)GlcNAc(b1-3)Gal(b1-4)GlcNAc(b1-3)Gal(b1-4)GlcNAc(b1-3)Gal(b1-4)GlcNAc(b1-3)Gal(b1-4)GlcNAc(b1-3)Gal(b1-4)GlcNAc(b1-2)Man(a1-3)[Gal(b1-4)GlcNAc(b1-3)Gal(b1-4)GlcNAc(b1-3)Gal(b1-4)GlcNAc(b1-3)Gal(b1-4)GlcNAc(b1-3)Gal(b1-4)GlcNAc(b1-3)Gal(b1-4)GlcNAc(b1-2)Man(a1-6)]Man(b1-4)GlcNAc(b1-4)GlcNAc
# Method in brief: as §1
# [15] = molecular target: Gal(b1-4)GlcNAc(b1-3)Gal(b1-4)GlcNAc(b1-3)GalNAc
# Method in brief: as §1
# [16] = molecular target: Gal(b1-4)GlcNAc(b1-3)Gal(b1-4)GlcNAc(b1-3)[Gal(b1-4)GlcNAc(b1-3)Gal(b1-4)GlcNAc(b1-6)]GalNAc
# Method in brief: as §1
# [17] = molecular target: Gal(b1-4)GlcNAc(b1-3)Gal(b1-4)GlcNAc(b1-6)[Gal(b1-3)]GalNAc
# Method in brief: as §1
# [18] = molecular target: Gal(b1-4)GlcNAc(b1-3)Gal(b1-4)[Fuc(a1-3)]GlcNAc(b1-3)Gal(b1-4)[Fuc(a1-3)]GlcNAc
# Method in brief: as §1
# [19] = molecular target: Gal(b1-4)GlcNAc(b1-3)GalNAc
# Method in brief: as §1
# [20] = molecular target: Gal(b1-4)GlcNAc(b1-3)[Fuc(a1-3)GlcNAc(b1-6)]Gal(b1-4)Glc
# Method in brief: as §1
# [21] = molecular target: Gal(b1-4)GlcNAc(b1-3)[Gal(b1-4)GlcNAc(b1-6)]Gal(b1-4)GlcNAc
# Method in brief: as §1
# [22] = molecular target: Gal(b1-4)GlcNAc(b1-3)[GlcNAc(b1-6)]Gal(b1-4)GlcNAc
# Method in brief: as §1
# [23] = molecular target: Gal(b1-4)GlcNAc(b1-6)Gal(b1-4)GlcNAc
# Method in brief: as §1
# [24] = molecular target: Gal(b1-4)GlcNAc(b1-6)GalNAc
# Method in brief: as §1
# [25] = molecular target: Gal(b1-4)GlcNAc(b1-6)[Gal(b1-3)]GalNAc
# Method in brief: as §1
# [26] = molecular target: Gal(b1-4)GlcNAc(b1-6)[Gal(b1-4)GlcNAc(b1-3)]GalNAc
# Method in brief: as §1
# [27] = molecular target: Gal(b1-4)GlcNAc6P
# Method in brief: as §1
# [28] = molecular target: Gal(b1-6)Gal
# Method in brief: as §1
# [29] = molecular target: Gal3S(b1-3)GalNAc
# Method in brief: as §1
# [30] = molecular target: Gal3S(b1-3)GlcNAc
# Method in brief: as §1
binder,measurement,setting,value
B1,glycan array binding signal (z-score),[1],0.801
same,glycan array binding signal (z-score),[2],0.567
same,glycan array binding signal (z-score),[3],2.1
same,glycan array binding signal (z-score),[4],-0.703
same,glycan array binding signal (z-score),[5],1.59
same,glycan array binding signal (z-score),[6],1.54
same,glycan array binding signal (z-score),[7],0.985
same,glycan array binding signal (z-score),[8],1.2
same,glycan array binding signal (z-score),[9],3.03
same,glycan array binding signal (z-score),[10],0.056
same,glycan array binding signal (z-score),[11],0.681
same,glycan array binding signal (z-score),[12],1.46
same,glycan array binding signal (z-score),[13],0.757
same,glycan array binding signal (z-score),[14],1.59
same,glycan array binding signal (z-score),[15],0.849
same,glycan array binding signal (z-score),[16],1.18
same,glycan array binding signal (z-score),[17],1.32
same,glycan array binding signal (z-score),[18],0.48
same,glycan array binding signal (z-score),[19],-0.27
same,glycan array binding signal (z-score),[20],-0.264
same,glycan array binding signal (z-score),[21],-0.723
same,glycan array binding signal (z-score),[22],-0.481
same,glycan array binding signal (z-score),[23],0.489
same,glycan array binding signal (z-score),[24],0.45
same,glycan array binding signal (z-score),[25],0.23
same,glycan array binding signal (z-score),[26],-0.149
same,glycan array binding signal (z-score),[27],0.043
same,glycan array binding signal (z-score),[28],-0.824
same,glycan array binding signal (z-score),[29],-0.165
same,glycan array binding signal (z-score),[30],0.719

# An excerpt of the results above, as a working copy:
binder,measurement,setting,value
B1,glycan array binding signal (z-score),[26],-0.149
same,glycan array binding signal (z-score),[27],0.043
